# Literature values in patent US20240307364A1, “GAS TRANSMISSION EMULSION FOR INTRAVENOUS ADMINISTRATION” (priority 2021, published 2024).
# At least one compound was matched to its structure with a doubt left.
# Columns and labels:
# [1] = measure of relative solubility of PFOC in lipids
# [2] = 37° C.
smiles,measurement,setting,value
FC(F)(F)N1C(F)(F)C(F)(F)C(F)(C2(F)C(F)(F)C(F)(F)C(F)(F)C(F)(F)C2(F)F)C(F)(F)C1(F)F [Perfluoromethylcyclohexylpiperidine],TcrH (temperature at which equal volumes of PFOC and hexane are mixed together),[1],40 °C
same,"P, vapor tension",[2],1 mm Hg
